Data on 4 compounds can be found in patent US9874558B2, “Immunoassay method less affected by impurities” (Konica Minolta, Inc., priority 2012, dated 2018).

The subject of this series is Trichosanthes japonica Lectin (TJA-II). Briefly: SPFS sandwich immunoassay of PSA with labeled TJA-II, added competing sugar chain compound, S/N ratio. To be noted: PSA 1.0 ng/mL in commercially available serum, sugar chain compound 0.1% by weight in PBS for 10 minutes, none: S/N 2.

Turning to `CCCCCCCCCCCCCCCCCCCCCCCCCC(=O)N[C@@H](CO[C@H]1O[C@H](CO)[C@H](O)[C@H](O)[C@H]1O)[C@H](O)[C@H](O)CCCCCCCCCCCCCC` [Galactosylceramide, α-galactosylceramide], the S/N was 3.

For galactosyl diglyceride, the S/N amounted to 4.

Turning to `CC(C)CCCC(C)C1CCC2C3CC=C4CC(OC(=O)NCCOC5OC(C)[C@@H](O)C(O)[C@H]5O)CC[C@]4(C)C3CC[C@]12C` (stereo partly shown) [Fuc-2-Chol], the S/N came out at 4. The value for `C[C@@H]1OC([C@]2(O)[C@H](O[C@H]3[C@H](O)[C@@H](O)C(O)O[C@@H]3CO)O[C@H](CO)[C@H](O)[C@@H]2O)[C@@H](O)[C@H](O)[C@@H]1O` (stereo partly drawn) [2′-fucosyl-D-lactose] was 3.
